Here are results for 26 compounds from the supplement of paper PMC11348887.

The structures appear in SMILES notation. Where a name gives a salt, the structure may show the parent alone. Some of the results follow. Small differences around the control level are noise. *1 amine or outer side, *2 acyl side, *3 side chain or, on linkers, in order; H or OH if unused. Where a SMILES comes first, the peptide text is derived from it. Bridges are numbered along the chain shown (N, C = ends). [ ]: non-standard residue; d: D form. The star is where a group is joined. pTerphenylCO(4''-OnC5H11) = CCCCCOc1ccc(-c2ccc(-c3ccc(C(=O)*)cc3)cc2)cc1; Orn(4R-OH,5R-OH) = O=C([C@H](C[C@@H](O)[C@@H](O)N[*:3])N[*:1])[*:2]; hTyr(3S-OH,4S-OH) = N[C@H](C(=O)O)[C@H](O)[C@@H](O)c1ccc(O)cc1; Pro(3S-OH,4S-Me) = C[C@H]1CN[C@H](C(=O)O)[C@H]1O; Hyp = O=C(O)[C@@H]1C[C@@H](O)CN1

Conditions in all cases: 5 µM; treatment: days 7-14 after plating, readout day 21
Assay [1] concerns hPSC-derived cortical neurons (WA09). Briefly: nucleus area z-score vs screen plate; higher = larger nuclei (more mature).
For assay [2] the test system is unchanged. Description: total neurite length per nucleus (MAP2) z-score; higher = more neurite growth.
Assay [3] shares this test system. Description: nucleus roundness z-score vs screen plate; higher = rounder nuclei (more mature).
Assay [4] has the same test system. Description: KCl-induced FOS+/EGR-1+ double-positive nuclei fraction z-score (KCl minus unstimulated); higher = stronger activity-induced IEG response.

Take `Nc1ncnc2c1nc(Br)n2[C@@H]1O[C@@H]2COP(=O)(O)O[C@H]2[C@H]1O` [8-Bromo-cAMP]: the nucleus area z-score in assay [1] was -0.181. The “total neurite length per nucleus (z-score)” value in assay [2] is -0.223. In addition, the nucleus roundness z-score in assay [3] is -0.512. In addition, in assay [4], the “KCl-induced FOS+/EGR-1+ double-positive nuclei fraction z-score” value is -0.705.
Taken in the same sequence, the figures for `CCCCCOc1ccc(-c2ccc(-c3ccc(C(=O)N[C@H]4C[C@@H](O)[C@@H](O)NC(=O)[C@@H]5[C@@H](O)[C@@H](C)CN5C(=O)[C@H]([C@@H](C)O)NC(=O)[C@H]([C@H](O)[C@@H](O)c5ccc(O)cc5)NC(=O)[C@@H]5C[C@@H](O)CN5C(=O)[C@H]([C@@H](C)O)NC4=O)cc3)cc2)cc1` ({pTerphenylCO(4''-OnC5H11)}-[Orn(4R-OH,5R-OH)]T[Hyp][hTyr(3S-OH,4S-OH)]T[Pro(3S-OH,4S-Me)]; lactam 1-C) were 1.13, -0.159, -1.53 and -0.375.
With `O=C(NCc1cccc(O)c1)Nc1nc(-c2ccncc2)cs1`, the nucleus area z-score in assay [1] amounted to 2.49. Moreover, in assay [2], the “total neurite length per nucleus (z-score)” value is -0.632. In assay [3], this compound yielded a nucleus roundness z-score of 0.173. Further, the “KCl-induced FOS+/EGR-1+ double-positive nuclei fraction z-score” value in assay [4] was -0.957.
`C=C1/C(=C\C=C2/CCC[C@]3(C)[C@@H]([C@H](C)CCCC(C)(C)O)CC[C@@H]23)C[C@@H](O)C[C@@H]1O` [Calcitriol]: the nucleus area z-score in assay [1] was 1.58. The “total neurite length per nucleus (z-score)” value in assay [2] was -0.332. In addition, in assay [3], the nucleus roundness z-score was -0.531. Besides, the “KCl-induced FOS+/EGR-1+ double-positive nuclei fraction z-score” value in assay [4] is -0.192.
Turning to `CO[C@H]1/C=C\C=C(/C)C(=O)NC2=CC(=O)C(NCCN(C)C)=C(C[C@@H](C)C[C@H](OC)[C@H](O)[C@@H](C)/C=C(\C)[C@@H]1OC(N)=O)C2=O` [17-DMAG (Alvespimycin) HCl], in assay [1], the nucleus area z-score is -9.42. For the same compound, the “total neurite length per nucleus (z-score)” value in assay [2] is -3.67. In addition, the nucleus roundness z-score in assay [3] is -3.36. Moreover, the “KCl-induced FOS+/EGR-1+ double-positive nuclei fraction z-score” value in assay [4] was -1.06.
`CC(C)[C@H]1CC[C@H](C(=O)N[C@H](Cc2ccccc2)C(=O)O)CC1` [Nateglinide]: the nucleus area z-score in assay [1] is 1.18. Also, in assay [2], the “total neurite length per nucleus (z-score)” value was determined as 0.826. In addition, in assay [3], the nucleus roundness z-score came to 0.104. In addition, in assay [4], the “KCl-induced FOS+/EGR-1+ double-positive nuclei fraction z-score” value worked out at 0.858.
`Cc1ccc(N(CC2=NCCN2)c2cccc(O)c2)cc1` [Phentolamine Mesylate] registered a nucleus area z-score in assay [1] of 0.373. Also, the “total neurite length per nucleus (z-score)” value in assay [2] was determined as 0.273. The compound also returned a nucleus roundness z-score in assay [3] of 0.326. For the same compound, the “KCl-induced FOS+/EGR-1+ double-positive nuclei fraction z-score” value in assay [4] is 0.242.
On the same counts, the results for `O=C(Nc1ccccc1)N1CCN(c2nc(-c3ccccc3)ns2)CC1` are 0.386, 0.811, 0.998 and 0.674.
On to `CCC(CC)(NC(=O)C(C)C)C(=O)N[C@@H](CCCN=C(N)N)C(=O)NC1(C(=O)NC(c2ccc(F)cc2)c2ccc(F)cc2)CCCC1`, for which the nucleus area z-score in assay [1] is -0.669. Further, the “total neurite length per nucleus (z-score)” value in assay [2] was -0.84. In addition, in assay [3], the nucleus roundness z-score is -0.585. Also, the “KCl-induced FOS+/EGR-1+ double-positive nuclei fraction z-score” value in assay [4] is 0.372.
On the same counts, the results for `Cc1cn([C@H]2O[C@@H](CO)[C@H](O)[C@H]2F)c(=O)[nH]c1=O` [Clevudine] are 0.165, 0.0205, 1.03 and 0.836.
On the same counts, the results for `CN(C)CCOc1ccc(/C(=C(/CCCl)c2ccccc2)c2ccccc2)cc1` [Toremifene Citrate] are -2.22, -1.37, -0.386 and 1.36.
In assay [1], `O=C(O)c1cc(C(F)(F)F)ccc1N1CC[C@H](OCc2ccccn2)C1` showed a nucleus area z-score of -0.263. Also, in assay [2], the “total neurite length per nucleus (z-score)” value was 0.0108. Further, in assay [3], the nucleus roundness z-score was 0.693. In assay [4], the “KCl-induced FOS+/EGR-1+ double-positive nuclei fraction z-score” value came out at 1.87.
Taken in the same sequence, the figures for `CCOc1ccc2nc3cc(N)ccc3c(N)c2c1` [Ethacridine lactate monohydrate] were -12.9, -4.86, -5.17 and -0.549.
In assay [1], `Nc1nc(N)nc(-c2cc(Cl)ccc2Cl)n1` [Irsogladine] returned a nucleus area z-score of 0.544. For the same compound, the “total neurite length per nucleus (z-score)” value in assay [2] was 0.801. In addition, in assay [3], the nucleus roundness z-score came to 1.41. Moreover, the “KCl-induced FOS+/EGR-1+ double-positive nuclei fraction z-score” value in assay [4] was -0.0146.
Regarding `C[C@@H](O)[C@H]1C(=O)N2C(C(=O)[O-])=C(SC3Cn4cnc[n+]4C3)[C@H](C)[C@H]12` (some centres undefined) [Biapenem], the nucleus area z-score in assay [1] was 1.1. In addition, the “total neurite length per nucleus (z-score)” value in assay [2] was -0.21. In assay [3], this compound had a nucleus roundness z-score of -0.596. Besides, the “KCl-induced FOS+/EGR-1+ double-positive nuclei fraction z-score” value in assay [4] is -0.728.
The compound `OCCn1cc(-c2cnc3nnn(Cc4ccc5ncccc5c4)c3n2)cn1` gave a nucleus area z-score in assay [1] of 0.121. Besides, the “total neurite length per nucleus (z-score)” value in assay [2] was determined as 0.7. In addition, in assay [3], the nucleus roundness z-score was determined as 0.887. Also, the “KCl-induced FOS+/EGR-1+ double-positive nuclei fraction z-score” value in assay [4] is 0.86.
Taken in the same sequence, the figures for `Cc1[nH]c2ccccc2c1CCNC(=O)c1cccs1` were 0.288, 0.59, 1.33 and 2.82.
On the same counts, the results for `CCOc1cc(N)c(Cl)cc1C(=O)NCC1CN(Cc2ccc(F)cc2)CCO1` (centres undefined) [Mosapride Citrate] are 1.52, 0.242, 0.109 and 0.159.
On the same counts, the results for `CCC(=O)O[C@]1(C(=O)SCF)[C@H](C)C[C@H]2[C@@H]3C[C@H](F)C4=CC(=O)C=C[C@]4(C)[C@@]3(F)[C@@H](O)C[C@@]21C` [Fluticasone propionate] are -0.274, 2.38, 1.54 and 0.804.
In assay [1], `c1cc(-c2cnn3cc(-c4ccc(OCCN5CCCCC5)cc4)cnc23)ccn1` [Dorsomorphin 2HCl] returned a nucleus area z-score of 1.35. The “total neurite length per nucleus (z-score)” value in assay [2] is -0.649. Also, the nucleus roundness z-score in assay [3] is -3.46. In assay [4], the “KCl-induced FOS+/EGR-1+ double-positive nuclei fraction z-score” value is -0.665.
On the same counts, the results for `CN(C)CCOC(c1ccc(Cl)cc1)c1ccccn1` (centres undefined) [CarbinoxaMine Maleate] are 0.416, 0.116, -0.199 and 0.0926.
Taken in the same sequence, the figures for `CC(C[N+](C)(C)C)OC(N)=O` (centres undefined) [Bethanechol chloride] were 1.9, 1.06, 1.2 and 1.31.
Taken in the same sequence, the figures for `CCc1cncnc1N1CCN(Cc2nc3ccc(C(F)(F)F)cc3[nH]2)CC1` were 0.163, -0.984, -0.933 and 0.0793.
`C[C@]12CC[C@@H]3c4ccc(O)cc4C[C@@H](CCCCCCCCC[S+]([O-])CCCC(F)(F)C(F)(F)F)[C@H]3[C@@H]1CC[C@@H]2O` (some centres undefined) [Fulvestrant] returned a nucleus area z-score in assay [1] of 1.83. Moreover, the “total neurite length per nucleus (z-score)” value in assay [2] amounted to 0.433. The compound further showed a nucleus roundness z-score in assay [3] of 0.463. Further, the “KCl-induced FOS+/EGR-1+ double-positive nuclei fraction z-score” value in assay [4] is 0.434.
In assay [1], `CN1C2CCCC1CC(NC(=O)c1nn(C)c3ccccc13)C2` (centres undefined) [Granisetron HCl] yielded a nucleus area z-score of -1.74. Moreover, the “total neurite length per nucleus (z-score)” value in assay [2] was -0.0203. Also, in assay [3], the nucleus roundness z-score was found to be 1.55. Further, the “KCl-induced FOS+/EGR-1+ double-positive nuclei fraction z-score” value in assay [4] was -0.959.
Compound `C=C1CC[C@H](O)C/C1=C/C=C1\CCC[C@]2(C)[C@@H]([C@H](C)CCCC(C)(C)O)CC[C@@H]12` [Calcifediol] came in with a nucleus area z-score in assay [1] of 0.734. In addition, the “total neurite length per nucleus (z-score)” value in assay [2] was 0.453. This compound also returned a nucleus roundness z-score in assay [3] of 1.02. For the same compound, in assay [4], the “KCl-induced FOS+/EGR-1+ double-positive nuclei fraction z-score” value was 2.42.
